In patent US6515005B2, “Substituted azole derivatives as inhibitors of corticotropin releasing factor” (Bristol-Myers Squibb Company, priority 2000, dated 2003):
The match of structure and compound is tentative.

Amino acid sequences for entries named in this document (tags omitted). Residues count along the entry.
UniProt P34998, 24-415 limits assumed: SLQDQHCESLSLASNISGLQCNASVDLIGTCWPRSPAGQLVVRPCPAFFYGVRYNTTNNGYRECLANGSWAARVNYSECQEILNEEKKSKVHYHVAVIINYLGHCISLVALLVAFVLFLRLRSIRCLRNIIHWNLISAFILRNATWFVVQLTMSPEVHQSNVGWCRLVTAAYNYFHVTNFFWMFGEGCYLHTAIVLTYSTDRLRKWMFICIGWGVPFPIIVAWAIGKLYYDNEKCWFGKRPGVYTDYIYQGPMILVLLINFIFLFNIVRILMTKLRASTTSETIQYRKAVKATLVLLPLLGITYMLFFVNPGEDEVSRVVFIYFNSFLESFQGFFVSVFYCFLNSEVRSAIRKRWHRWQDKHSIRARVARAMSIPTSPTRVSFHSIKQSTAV

Biological target: CRF1 receptor (Homo sapiens, UniProt P34998)
Assay: CRF1 receptor radioligand binding assay ([125I]-oCRF competition, IMR-32 cell membranes)
Conditions: Second Set of Examples (Table 2), [125I]-oCRF (100 pM)

IC50: 6.27 µM
Structure (SMILES): FC(F)(F)c1nc(Nc2c(Cl)cc(Cl)cc2Cl)sc1CNCc1ccc(Cl)cc1
